What all share (assay): split reporter; BiFC with split Citrine on genomically tagged proteins in living S. cerevisiae, confocal microscopy; cells starved for the transceptor's substrate (nitrogen 24 h, phosphate 72 h, sulfate 48 h); Gnp1 and Mup3 strains also in exponential growth
For test [1], the target named is T1, Mup3 tagged with the N-terminal half of Citrine (MUP3-N-Citrine) (S. cerevisiae (endogenous gene, tagged)) (UniProt P38734).
T1 sequence: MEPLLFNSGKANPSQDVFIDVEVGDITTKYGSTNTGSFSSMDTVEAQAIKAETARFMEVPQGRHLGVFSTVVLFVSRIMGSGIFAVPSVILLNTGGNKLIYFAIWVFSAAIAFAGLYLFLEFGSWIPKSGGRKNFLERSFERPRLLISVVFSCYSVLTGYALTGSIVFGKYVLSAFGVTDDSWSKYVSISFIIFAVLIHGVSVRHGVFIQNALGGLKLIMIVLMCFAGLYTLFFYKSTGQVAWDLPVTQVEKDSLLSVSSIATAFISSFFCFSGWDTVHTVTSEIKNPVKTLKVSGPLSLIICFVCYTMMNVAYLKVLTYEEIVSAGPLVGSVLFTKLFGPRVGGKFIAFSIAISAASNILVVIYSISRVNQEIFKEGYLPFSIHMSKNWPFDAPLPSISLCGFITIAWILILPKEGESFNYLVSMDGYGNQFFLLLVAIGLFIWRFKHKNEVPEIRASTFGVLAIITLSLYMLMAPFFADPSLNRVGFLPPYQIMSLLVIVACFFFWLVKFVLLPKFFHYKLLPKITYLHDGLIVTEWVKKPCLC

Test [2] concerns the target T2, Sul1 tagged with the N-terminal half of Citrine (SUL1-N-Citrine) (S. cerevisiae (endogenous gene, tagged)) (UniProt P38359).
T2 sequence: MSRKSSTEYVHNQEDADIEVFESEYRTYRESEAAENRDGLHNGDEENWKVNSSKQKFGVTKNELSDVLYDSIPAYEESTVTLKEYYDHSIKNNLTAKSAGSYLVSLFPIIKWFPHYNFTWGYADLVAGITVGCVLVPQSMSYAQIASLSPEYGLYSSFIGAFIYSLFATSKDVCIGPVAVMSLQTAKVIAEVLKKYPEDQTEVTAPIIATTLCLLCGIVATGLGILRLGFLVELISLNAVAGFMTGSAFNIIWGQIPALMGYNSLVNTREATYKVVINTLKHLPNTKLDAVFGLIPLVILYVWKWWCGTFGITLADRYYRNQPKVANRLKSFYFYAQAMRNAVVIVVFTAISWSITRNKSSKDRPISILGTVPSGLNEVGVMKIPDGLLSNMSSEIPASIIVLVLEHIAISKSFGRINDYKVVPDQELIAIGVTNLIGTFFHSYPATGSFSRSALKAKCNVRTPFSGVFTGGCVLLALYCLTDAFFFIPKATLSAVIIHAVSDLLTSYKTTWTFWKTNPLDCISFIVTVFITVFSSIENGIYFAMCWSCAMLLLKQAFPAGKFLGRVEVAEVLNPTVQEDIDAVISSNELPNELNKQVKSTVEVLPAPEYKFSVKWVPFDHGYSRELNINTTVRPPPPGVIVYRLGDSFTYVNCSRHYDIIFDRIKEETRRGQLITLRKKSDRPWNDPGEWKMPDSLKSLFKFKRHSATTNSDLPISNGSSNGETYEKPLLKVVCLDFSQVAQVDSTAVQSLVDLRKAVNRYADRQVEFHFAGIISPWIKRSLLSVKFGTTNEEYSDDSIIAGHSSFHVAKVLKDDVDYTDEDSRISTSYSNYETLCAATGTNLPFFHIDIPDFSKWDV

In test [3] the target is T3, Mep2 tagged with the N-terminal half of Citrine (MEP2-N-Citrine) (S. cerevisiae (endogenous gene, tagged)) (UniProt P41948).
T3 sequence: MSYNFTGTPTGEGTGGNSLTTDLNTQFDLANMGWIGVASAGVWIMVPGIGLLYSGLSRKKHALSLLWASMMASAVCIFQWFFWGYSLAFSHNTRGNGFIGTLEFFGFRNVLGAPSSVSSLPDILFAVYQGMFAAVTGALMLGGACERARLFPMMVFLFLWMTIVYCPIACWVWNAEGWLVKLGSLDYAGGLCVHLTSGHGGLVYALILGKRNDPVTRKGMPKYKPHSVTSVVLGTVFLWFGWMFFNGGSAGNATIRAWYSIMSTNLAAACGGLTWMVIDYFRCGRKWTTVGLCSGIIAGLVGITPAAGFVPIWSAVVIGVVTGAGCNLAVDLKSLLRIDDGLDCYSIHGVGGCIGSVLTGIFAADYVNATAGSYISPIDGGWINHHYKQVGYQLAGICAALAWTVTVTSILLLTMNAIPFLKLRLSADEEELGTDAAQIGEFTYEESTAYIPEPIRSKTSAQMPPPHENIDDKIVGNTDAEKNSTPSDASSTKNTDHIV

These are yes or no findings as the source states them, for the method shown. In cells and extracts the contact can be indirect. Some binding calls cover weakened binding; strength is not graded here. Where a sequence is shown, tags or fusion partners need not be part of it.

B1: Sch9 tagged with the C-terminal half of Citrine (SCH9-C-Citrine) (enzyme, UniProt P11792 1-824)
chain: MMNFFTSKSSNQDTGFSSQHQHPNGQNNGNNNSSTAGNDNGYPCKLVSSGPCASSNNGALFTNFTLQTATPTTAISQDLYAMGTTGITSENALFQMKSMNNGISSVNNNNSNTPTIITTSQEETNAGNVHGDTGGNSLQNSEDDNFSSSSTTKCLLSSTSSLSINQREAAAAAYGPDTDIPRGKLEVTIIEARDLVTRSKDSQPYVVCTFESSEFISNGPESLGAINNNNNNNNNNQHNQNQHINNNNENTNPDAASQHHNNNSGWNGSQLPSIKEHLKKKPLYTHRSSSQLDQLNSCSSVTDPSKRSSNSSSGSSNGPKNDSSHPIWHHKTTFDVLGSHSELDISVYDAAHDHMFLGQVRLYPMIHNLAHASQHQWHSLKPRVIDEVVSGDILIKWTYKQTKKRHYGPQDFEVLRLLGKGTFGQVYQVKKKDTQRIYAMKVLSKKVIVKKNEIAHTIGERNILVTTASKSSPFIVGLKFSFQTPTDLYLVTDYMSGGELFWHLQKEGRFSEDRAKFYIAELVLALEHLHDNDIVYRDLKPENILLDANGNIALCDFGLSKADLKDRTNTFCGTTEYLAPELLLDETGYTKMVDFWSLGVLIFEMCCGWSPFFAENNQKMYQKIAFGKVKFPRDVLSQEGRSFVKGLLNRNPKHRLGAIDDGRELRAHPFFADIDWEALKQKKIPPPFKPHLVSETDTSNFDPEFTTASTSYMNKHQPMMTATPLSPAMQAKFAGFTFVDESAIDEHVNNNRKFLQNSYFMEPGSFIPGNPNLPPDEDVIDDDGDEDINDGFNQEKNMNNSHSQMDFDGDQHMDDEFVSGRFEI
With B1, the figures for the binding entry in test [1], in test [2] and in test [3] were “no binding”, “binds” and “binds”, respectively.

The values are drawn from publication PMC7850899, “Nutrient transceptors physically interact with the yeast S6/protein kinase B homolog, Sch9, a TOR kinase target” (Biochemical Journal, 2021).
